Patent US9133195B2, “Quaternary ammonium salt compounds of spirocyclopiperazines, preparation methods and uses thereof” (Peking University, priority 2006, dated 2015)
At least one structure is not confirmed: it was looked up by name or label, or the drawing left a doubt.

Legend:
ICR mice = assay: Formalin test; type: in vivo; details: 0.5 h after s.c.
Method: Sixty ICR mice, male and female in half, were divided into six groups with 10 mice in each group. The following groups were established: the normal saline (NS) control group, in which normal saline was administered by s.c.; the aspirin control group, in which aspirin was administered by i.g. at the dose of 300 mg/kg; the morphine control, group, in which morphine was administered (s.c.) at the dose of 10.0 mg/kg; and compound LXM-10 groups, in which compound LXM-10 were administered (s.c.) at the dose of 0.75, 1.5, 3.0 and 6.0 mg/kg. All drugs were dissolved in normal saline before use. The drugs injected at the dose of 0.1 ml/10 g. 30 min after administration, animals were administered 20 ul of 2.5% formalin solution on the right front paws. The licking times were recorded immediately in the duration of 0˜5 minutes as phase I reaction; After 20 minutes, the licking times were recorded in the duration of 20˜25 minutes as phase II reaction. The percentage of pain inhibition (%) was determined by using the following formula (5): Pain inhibition %=[(The licking time of normal saline control group−the licking time of drug injection group)/the licking time of normal saline control group]×100% (5) 2. Experimental Results

[1] = test system: peripheral muscarine receptors; assay: Effect of atropine and methyl atropine on the analgesic effect of LXM-10 in hot-plate test; type: in vivo, mice; details: dose-dependent manner
opioid receptors = assay: Effect of naloxone on the analgesic effect of LXM-10 in hot-plate test; type: in vivo, mice
α2-adrenergic receptors = assay: Effect of yohimbine on the analgesic effect of LXM-10 in hot-plate test; type: in vivo, mice; details: yohimbine 1.0, 2.5 and 5.0 mg/kg
[2] = test system: peripheral nicotinic receptors; assay: Effect of mecamylamine and hexamethonium on the analgesic effect of LXM-10 in hot-plate test; type: in vivo, mice; details: dose-dependent manner

CC1C[N+]2(CCN(CCc3ccccc3)CC2)CC(C)O1 (stereo not drawn) [LXM-10, 2,4-dimethyl-9-β-phenylethyl-3-oxo-6,9-diazaspiro[5.5]undecane chloride]
effect on the licking time in Phase I (ICR mice; Phase I (0-5 min)): no obvious effect
licking time in Phase II (ICR mice; Phase II (20-25 min)): significantly reduced
analgesic effect blocked by atropine ([1]; atropine 1.0, 2.5 and 5.0 mg/kg): blocked
analgesic effect blocked by methyl atropine ([1]; methyl atropine (atropine methylnitrate) 1.0, 2.5 and 5.0 mg/kg): blocked
analgesic effect blocked by naloxone (opioid receptors): not blocked
analgesic effect blocked by yohimbine (α2-adrenergic receptors): not blocked
analgesic effect blocked by hexamethonium ([2]; hexamethonium 1.0, 2.5 and 5.0 mg/kg): blocked
analgesic effect blocked by mecamylamine ([2]; mecamylamine 1.0, 2.5 and 5.0 mg/kg): blocked
